From PubChem BioAssay AID504834 (National Center for Advancing Translational Sciences (NCATS), 2011)
Out of some 320,000 compounds screened, about 22,000 (6.9%) were called active. Inconclusive means that the source gave no clear call. Such entries were picked first, then a sample of the others. Calls follow the shape of the dose curve; as a rule, active = well fitted inhibition curve with a large enough effect; inconclusive = small, poorly fitted or top-dose-only effect, or another doubt; inactive = no such curve, though single readings can be large or run the other way. Potencies beside an inconclusive call are fits to weak or partial responses and may not hold up.

Experiment: Primary qHTS for delayed death inhibitors of the malarial parasite plastid, 96 hour incubation
Conditions: P. falciparum luciferase reporter growth; series mostly up to 28.7 µM
In short: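 Delayed-death screen, second-generation endpoint: infected erythrocytes, 2% hematocrit, 0.05% parasitemia final; 96 hours at 37 C, 5% CO2; luciferase detection reagent; luminescence decrease equals reduced growth.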
Potency is read from the fitted curve at half-maximal effect.

| Compound | Potency |
| --- | --- |
| Cn1c(SCC(=O)c2c(N)n(C)c(=O)n(C)c2=O)nnc1-c1ccc(F)cc1 | inconclusive: 10.4 µM [inhibitor, partial curve, poor fit] |
| CCN(CC(=O)Nc1ccc(Br)cc1)C(=O)c1nc2nc(C)cc(C)n2n1 | inconclusive: 8.28 µM [inhibitor, partial curve, poor fit] |
| COC(=O)c1ccc(-c2nc3ccccc3[nH]2)cc1 | inactive |
| O=C(Nc1ccc(C(=O)N2CCCCC2)cc1)Nc1cccc(Cl)c1 | inactive |
| CC1CCN(C(=O)C2CCN(S(=O)(=O)c3cccc4cccnc34)CC2)CC1 | inactive |
| O=C(CSc1nc(Cc2ccccc2)nc2ccccc12)Nc1ccc2c(c1)OCCO2 | inconclusive: 2.94 µM [inhibitor, full curve] |
| CC(C)[C@H](NC(=O)OCc1ccccc1)C(=O)OCc1cc(=O)oc2cc(O)ccc12 | inconclusive: 11.7 µM [inhibitor, partial curve] |
| COC(=O)c1cc(C)[nH]c2c(C)cc3nc4ccccc4c3c12 | inconclusive: 7.38 µM [inhibitor, partial curve, poor fit] |
| O=C(CCc1ccccc1)Nc1ccc2ccccc2n1 | inconclusive: 16.5 µM [inhibitor, single point] |
| Cn1c(=O)oc2cc(S(=O)(=O)N3CCC(C(=O)N4CCN(c5ccc(F)cc5)CC4)CC3)ccc21 | inactive |
| CCCN(Cc1cc2cc(OC)ccc2[nH]c1=O)C(=O)c1ccncc1 | inconclusive: 14.7 µM [inhibitor, partial curve, poor fit] |
| Cc1cc(C)nc(-n2ncc3c2CC(c2ccccc2)CC3=O)n1 (stereo not drawn) | inconclusive: 18.5 µM [inhibitor, single point] |
| C=CCn1c(O)c(C(CC)=NCCc2ccccc2)c(=O)[nH]c1=O | inconclusive: 13.1 µM [inhibitor, partial curve] |
| CC1(OC(=O)C2CCCC2)C(=O)C=C2C=C(c3ccsc3)N(CCCCO)C=C2C1=O (stereo not drawn) | inconclusive: 18.5 µM [inhibitor, single point] |
| C=CCN=c1scc(-c2ccc3c(c2)NC(=O)CO3)n1/N=C(\C)c1ccccn1 | inconclusive: 0.928 µM [inhibitor, full curve] |
| COc1cccc(/C=N/n2c(N)c(S(=O)(=O)c3cccs3)c3nc4ccccc4nc32)c1 | inconclusive: 0.131 µM [inhibitor, full curve, poor fit] |
| Cc1[nH]c2ccc(C(=O)N3CCN(c4ccc(F)cc4)CC3)cc2c1C | inactive |
| COC(=O)c1ccc(NC(=O)Cn2nnc3ccccc32)cc1 | active: 5.22 µM |
| COCCn1c(SCC(=O)Nc2cccnc2Cl)nc2cc(Cl)ccc2c1=O | inconclusive: 18.5 µM [inhibitor, single point] |
| Cn1c(=O)c2cc(S(=O)(=O)NC(C(=O)NC3CCCCC3)c3ccccc3)ccc2n(C)c1=O (stereo not drawn) | inactive |
| NC(=O)CC(NC(=O)Cc1ccc(Br)cc1)c1ccc(N2CCc3ccccc3C2)c([N+](=O)[O-])c1 (stereo not drawn) | inconclusive: 11.7 µM [inhibitor, single point] |
| CCOC(=O)Cn1cc(/C=C(\C#N)C(=O)N2CCOCC2)c2ccccc21 | inactive |
| Cc1nn(-c2ccc(F)cc2)c2sc(C(=O)OC3CCOC3=O)cc12 (stereo not drawn) | inactive |

| Compound | Potency |
| --- | --- |
| Cn1c(C(=O)OCC(=O)NCC2CCCO2)cc2sccc21 (stereo not drawn) | inconclusive: 6.57 µM [inhibitor, partial curve, poor fit] |
| Cc1ccc(Cl)cc1N1CCN(C(CC(C)C)c2nnnn2CC2CCCO2)CC1 (stereo not drawn) | inactive |
| COc1ccc(OC)c(-n2c(C)ccc2-c2ccc(S(C)(=O)=O)cc2)c1 | inconclusive: 18.5 µM [inhibitor, partial curve, poor fit] |
| NC(=S)C(c1ccccc1)c1ncc(C(F)(F)F)cc1Cl (stereo not drawn) | inconclusive: 18.5 µM [inhibitor, single point] |
| CC(C)c1ccc(Nc2c([N+](=O)[O-])c(=O)n(C)c3ccccc23)cc1 | inconclusive: 18.5 µM [inhibitor, single point] |
| CC(=O)c1ccc(-n2ccnc2)cc1 | inconclusive: 0.0828 µM [inhibitor, full curve, poor fit] |
| CC(C)(C)C1CCC(C(=O)Nc2ccc(N3CCOCC3)cc2N2CCOCC2)CC1 (stereo not drawn) | inconclusive: 13.1 µM [inhibitor, single point] |
| Cc1ccc(C)c(SCC(=O)NCC(c2ccco2)N2CCCCC2)c1 (stereo not drawn) | inconclusive: 11.7 µM [inhibitor, single point] |
| CCc1ccc(/C=C2/Sc3ccccc3N(CC(=O)NCC3CCCO3)C2=O)cc1 (stereo not drawn) | inconclusive: 10.4 µM [inhibitor, single point] |
| Cn1c(=O)cc(OCC(=O)NCCCN2CCN(c3ccccc3F)CC2)c2ccccc21 | inconclusive: 14.7 µM [inhibitor, partial curve, poor fit] |
| CCCCOC(=O)c1ccc(NC(=O)c2nn(C)cc2Br)cc1 | inconclusive: 13.1 µM [inhibitor, single point] |
| Cc1ccc2nc(C)cc(Nc3ccc([N+](=O)[O-])cc3)c2c1 | inconclusive: 0.329 µM [inhibitor, full curve, poor fit] |
| CCCC(=O)N1CCN(c2nc3ccc(Cl)cc3s2)CC1 | inactive |
| COc1cc(Nc2nnc(C)s2)c(Cl)cc1Cl | inconclusive: 0.928 µM [inhibitor, full curve, poor fit] |
| O=C(c1ccc(Cl)cc1)C1CCCN(Cc2cccn2-c2ccccn2)C1 (stereo not drawn) | inactive |
| COc1cc([N+](=O)[O-])ccc1NC(=O)CN1CCOCC1 | inactive |
| COc1ccc(C(=O)C2CCCN(C(=O)c3cccnc3SC)C2)c(C)c1 (stereo not drawn) | inconclusive: 11.7 µM [inhibitor, partial curve] |
| COc1cc(/C=N/NC(=O)c2cccc([N+](=O)[O-])c2)ccc1O | inactive |
| Cc1ccc2nc(-c3ccccc3)cn2c1 | inconclusive: 1.04 µM [inhibitor, partial curve, poor fit] |
| N/C(=N\OC(=O)Cc1ccccc1)c1ccc(Br)cc1 | inactive |
| CC(C)CNC(=O)Cn1c(=O)c2c(ncn2CC(C)C)n(Cc2ccccc2)c1=O | inconclusive: 3.29 µM [inhibitor, partial curve, poor fit] |
| O=C(CNc1ccccc1)N/N=C/c1ccc([N+](=O)[O-])o1 | active: 2.62 µM |
| COc1ccc(-c2[nH]nc3c2C(c2ccncc2)C(C#N)=C(N)O3)cc1 (stereo not drawn) | active: 4.65 µM |

| Compound | Potency |
| --- | --- |
| Cc1ccc2c(c1)=C(c1ccccc1)N(O)CC(=O)N=2 | inactive |
| Cc1ccccc1OCc1nnc(SCC(=O)Nc2ccc3c(c2)OCO3)n1C | inconclusive: 18.5 µM [inhibitor, single point] |
| O=C(O)CCCC(=O)N1N=C(c2ccccc2)CC1c1ccc2c(c1)OCO2 (stereo not drawn) | inconclusive: 18.5 µM [inhibitor, single point] |
| O=C(CCc1ccccc1)C(=O)N1CCCC(C(=O)c2cccc(Cl)c2)C1 (stereo not drawn) | inconclusive: 0.37 µM [inhibitor, full curve, poor fit] |
| Cc1onc(-c2ccc(Cl)cc2)c1-c1ccnc(SCC(=O)Nc2cc(Cl)cc(Cl)c2)n1 | inconclusive: 18.5 µM [inhibitor, single point] |
| COc1ccc(NS(=O)(=O)c2cc(NC(=O)/C=C/c3cc(OC)ccc3OC)ccc2N2CCCCC2)cc1 | active: 2.62 µM |
| CCOC(OCC)c1cn(Cc2ccc(C(=O)c3ccccc3)cc2)nn1 | inconclusive: 0.0522 µM [inhibitor, full curve, poor fit] |
| O=C(CCNC(=O)c1ccc([N+](=O)[O-])cc1)NC1CCCCC1 | inactive |
| O=C(NC1CC1)C(Cc1ccccc1)NS(=O)(=O)c1ccccc1F (stereo not drawn) | inactive |
| COc1ccc(C2N(C(C)=O)CCN2S(=O)(=O)c2ccc(C)cc2)cc1 (stereo not drawn) | inactive |
| COC(=O)c1cccc(Nc2nc(-c3cccnc3)nc3ccccc23)c1 | inconclusive: 6.57 µM [inhibitor, partial curve] |
| CC(=O)Nc1cccc(NC(=O)CCCC2CCCCC2)c1 | inconclusive: 18.5 µM [inhibitor, single point] |
| Cc1ccc(S(=O)(=O)N2CCCCC2CCNC(=O)C(=O)NCc2cccnc2)cc1 (stereo not drawn) | inconclusive: 18.5 µM [inhibitor, single point] |
| CCOc1ccc(N(CC(=O)NCCSCc2ccccc2)S(=O)(=O)c2ccccc2)cc1 | inconclusive: 10.4 µM [inhibitor, partial curve, poor fit] |
| Cc1cc2ccccn2c1C(=O)c1nc(NCc2ccco2)ncc1Cl | inactive |
| CC(=O)NCC(=O)N(Cc1ccco1)C1(C(=O)NC2CCCCC2)CCCCC1 | inconclusive: 0.0738 µM [inhibitor, full curve, poor fit] |
| CNS(=O)(=O)c1ccc(NS(=O)(=O)c2ccccc2F)cc1 | inconclusive: 0.0657 µM [inhibitor, full curve, poor fit] |
| CCc1c(C)nc2cc(-c3ccc(OC)c(OC)c3)nn2c1NCC1CC1 | inconclusive: 1.31 µM [inhibitor, full curve, poor fit] |
| O=C1NC2(CCCCCC2)C(=O)N1Cc1ccc([N+](=O)[O-])cc1 | inconclusive: 18.5 µM [inhibitor, single point] |
| O=C(N1CCCC1)C12CCC3CC(CC(C3)C1)C2 | active: 9.28 µM |
| Cc1nn(CCCC(=O)N2CCc3ccccc3C2)c(=O)c2cc3sccc3n12 | inconclusive: 18.5 µM [inhibitor, single point] |
| CN1CCN(CC(=O)Nc2ccc(OCc3ccccc3)cc2)CC1 | inactive |

Copied from the list.
Entry of Cc1ccc(S(=O)(=O)N2CCCCC2CCNC(=O)C(=O)NCc2cccnc2)cc1 (stereo not drawn) under Potency: inconclusive: 18.5 µM [inhibitor, single point]
Entry of O=C(CCc1ccccc1)C(=O)N1CCCC(C(=O)c2cccc(Cl)c2)C1 (stereo not drawn) under Potency: inconclusive: 0.37 µM [inhibitor, full curve, poor fit]
Entry of O=C(NC1CC1)C(Cc1ccccc1)NS(=O)(=O)c1ccccc1F (stereo not drawn) under Potency: inactive
Entry of CCOC(OCC)c1cn(Cc2ccc(C(=O)c3ccccc3)cc2)nn1 under Potency: inconclusive: 0.0522 µM [inhibitor, full curve, poor fit]
Entry of Cc1onc(-c2ccc(Cl)cc2)c1-c1ccnc(SCC(=O)Nc2cc(Cl)cc(Cl)c2)n1 under Potency: inconclusive: 18.5 µM [inhibitor, single point]
